Measurements as given in patent US20220359084A1, “Methods of Treatments Based Upon Molecular Characterization of Breast Cancer” (The Board of Trustees of the Leland Stanford Junior …, priority 2019, published 2022).
For at least one compound, name, drawing or mass did not settle the structure. Some results were stated once for a whole list of compounds, not compound by compound.

Assays:
[1] = system: patients with metastatic ER-positive breast cancer; test: Progression free survival by molecular subgroup in a prospective cohort of 812 patients; format: in vivo, human; conditions: IntClust2 patients; pooled CDK4/6 inhibitor group; FIG. 46; adj. P value=0.016
Description: The ability of chemotherapy, targeted therapies, and endocrine therapies on patients within particular molecular subgroups was examined in a prospective cohort of 812 patients with metastatic ER-positive breast cancer. Provided in FIG. […]

[2] = system: patient derived organoids derived from patient 19004; test: Patient derived organoid (PDO) viability, AlamarBlue, FIGS. 53A and 53B; format: cell-based, human; conditions: ER-positive PDOs categorized into IntClust4, text says 19006 patient (FIGS. 53A and 53B), 8 days treatment, 'on the order of', units given within the value
Protocol: FIGS. 53A and 53B provide viability curves of patient derived organoids derived from patient 19004, generated in accordance with various embodiments of the invention.
(§1) To assess breast cancer PDOs, the organoids were digested into single cells with TrypLE (Gibco). Cells are strained with a 100 μm filter then seeded as 10,000 cells per well with 10 μl […] (BME) (Cultrex) in a black, clear bottom 96-well plate and covered with 100 μl breast organoid media. Cells are grown for 4 days to form small spheroids. Cells were treated with 6 concentrations of different targeted Therapies (including but not limited to capivasertib, ipatasertib, PF4706871, M2698, alpelisib), as well as negative control (DMSO) and positive control (Triton X-100) in duplicate for 8 days, with drug media refreshed on day 5. On day 8, the plates are manually checked under the microscope to ensure the positive control drug(s) had effectively killed organoids, and that organoids present in the negative control wells were healthy. Cell viability is assessed using AlamarBlue (Thermofisher) by adding the dye to the media in final concentration of 1:10, followed by incubation for 4 hours at 37° C., and […] measurement using a microplate reader (Molecular Devices). […] Averages of IC50s from two to three independent experiments were calculated and visualized using R. […]

[3] = system: PDOs derived from the 19006 patient; test: Patient derived organoid (PDO) viability, AlamarBlue, patient 19006; format: cell-based, human; conditions: ER-positive PDOs categorized into IntClust4, 19006 patient (FIGS. 52A and 52B), 8 days treatment, 'on the order of', units given within the value
Protocol: FIGS. 52A and 52B provide viability curves of patient derived organoids derived from patient 19006, generated in accordance with various embodiments of the invention.
as §1

With `CCN1CCN(Cc2ccc(Nc3ncc(F)c(-c4cc(F)c5nc(C)n(C(C)C)c5c4)n3)nc2)CC1` [abemaciclib] the “progression free survival probability, with vs without CDK4/6 antagonist treatment” value [1] was “profoundly greater survival probability”.
For `CC(=O)c1c(C)c2cnc(Nc3ccc(N4CCNCC4)cn3)nc2n(C2CCCC2)c1=O` [palbociclib], the “progression free survival probability, with vs without CDK4/6 antagonist treatment” value [1] was “profoundly greater survival probability”.
With `NC1(C(=O)N[C@@H](CCO)c2ccc(Cl)cc2)CCN(c2nc[nH]c3nccc2-3)CC1` [capivasertib] the IC50 [2] was 0.1 to 10 µM and the IC50 [3] was 0.1 to 10 µM.
